# In the supplement of paper PMC12067093, “Discovery and optimisation of a covalent ligand for TRIM25 and its application to targeted protein ubiquitination” (Chemical Science, 2025):
# The list shows a part of the results.
# Compound: Cc1cc(ccc1-c1ccccc1)C(=O)N1CCCN(CC1)C(=O)CCl [compound 10]
# Experiment: probe-labelled cysteine peptide fold change vs DMSO (competition) (log2 fold change); higher = less target engagement (more negative = stronger competition)
# Conditions: THP-1, incubation time: 4 h
# 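Note: competitive profiling in live THP-1 cells: cysteine peptides tagged with an iodoacetamide desthiobiotin (IA-DTB) probe, intensity after compound treatment relative to DMSO-treated cells.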
Target,probe-labelled cysteine peptide fold change (10 µM),probe-labelled cysteine peptide fold change (50 µM)
CUL3_Q13618_636_ALQSLACGKPTQR (UniProt Q13618),-0.223,-0.175
CYFIP1_Q7L576_519_TVCDWETGHEPFNDPALR (UniProt Q7L576),-0.16,0.612
CUL4A_Q13619_289_RLEEEGDRVITYLDHSTQKPLIACVEK (UniProt Q13619),-0.276,-0.439
CTSB_P07858_59_LCGTFLGGPKPPQR (UniProt P07858),0.145,-0.146
CTSC_P53634_321_YAQDFGLVEEACFPYTGTDSPCK (UniProt P53634),-0.183,-0.228
DARS_P14868_203_LQSGICHLFR (UniProt P14868),0.0878,0.138
CTSG_P08311_186_RQICVGDR (UniProt P08311),-0.0544,0.0512
DCAF1_Q9Y4B6_1297_TFHLLHTVPALDQCR (UniProt Q9Y4B6),0.309,0.631
DBR1_Q9UK59_37_RGPGPVDLLLCCGDFQAVR (UniProt Q9UK59),0.0219,-0.195
CXorf56_Q9H5V9_69_FCNTEDEETMYLR (UniProt Q9H5V9),0.0387,-0.244
DARS2_Q6PI48_371_AICIPEGAK (UniProt Q6PI48),-0.0513,0.0223
DCTN1_Q14203_677_YEHALSQCSVDVYKK (UniProt Q14203),-0.0507,0.396
DCAF10_Q5QP82_369_VSGSPCHHSDSNSSEK (UniProt Q5QP82),0.042,-0.58
CUL7_Q14999_1201_AAFLLALQNGCAGALLK (UniProt Q14999),-0.473,0.0183
CUL7_Q14999_60_RGDEGDGGSGQVDCK (UniProt Q14999),-0.268,-0.211
CYFIP1_Q7L576_1088_LCCGLSMFEVILTR (UniProt Q7L576),0.137,0.226
CYTH1_Q15438_323_KPNCFELYIPDNK (UniProt Q15438),-0.0201,0.17
DAPK1_P53355_484_YGHADVAQLLCSFGSNPNIQDKEEETPLHCAAWHGYYSVAK (UniProt P53355),-0.0999,-0.026
DDAH2_O95865_220_AMAVLTDHPYASLTLPDDAAADCLFLRPGLPGVPPFLLHR (UniProt O95865),0.061,0.0115
CXorf38_Q8TB03_133_QGPEECDAVALLSLINSCDHFVVDRK (UniProt Q8TB03),-0.428,-0.14
DCTN4_Q9UJW0_114_AYYLACGFCR (UniProt Q9UJW0),0.0164,0.0885
DCUN1D5_Q9BTE7_117_GMTSLQCDCTEK (UniProt Q9BTE7),0.0628,-0.295

# In another format: entries from further up.
Target | probe-labelled cysteine peptide fold change (10 µM) | probe-labelled cysteine peptide fold change (50 µM)
CYFIP1_Q7L576_519_TVCDWETGHEPFNDPALR (UniProt Q7L576) | -0.16 | 0.612
DCUN1D5_Q9BTE7_117_GMTSLQCDCTEK (UniProt Q9BTE7) | 0.0628 | -0.295
